# Test results reported in PubChem BioAssay AID2685 (National Center for Advancing Translational Sciences (NCATS), 2010).
# The list shows a part of the results. The main result of the screen is listed elsewhere. These columns were measured beside it and carry no call. Compounds called inactive in the main read-out are mostly missing here. Potencies come from curve fits of mixed quality, noted in brackets.
# Assay: qHTS Assay for Lipid Storage Modulators in Drosophila S3 Cells;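 as to cell number change: cells counted by Cell Tracker Red CMTPX staining in the red channel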
# Details: BODIPY lipid droplet fluorescence, 18-24 h; for cell number change: measured here: cell count max response, cells fed with added oleic acid
# Outline: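 Drosophila S3 cells got compounds at several concentrations plus oleic acid (400 uM solution). Laser-scanning cytometry with 488 nm excitation read lipid droplets at 500-530 nm and cells at 575-640 nm. Percent activity was relative to 20 uM Triacsin C.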
# [1] = measured here: cell number channel AC50, cells fed with added oleic acid
# [2] = measured here: lipid fluorescence (Fed channel) AC50, cells fed with added oleic acid
Compound,cell number change [%],AC50 [1],AC50 [2]
CCOC(=O)N1CCC(NC(=O)CN2C(=O)C(CC)Oc3ccc(C)cc32)CC1 (stereo unspecified),-53.9,"20.6 µM [falling, partial curve]","6.51 µM [falling, single point]"
CC(C)Sc1nnc([C@@H]2CCCN2C(=O)OC(C)(C)C)o1,,,"29.1 µM [falling, partial curve]"
CC(C)(C)c1ccc(C(=O)Nc2ccc(C(=O)N3CCCC3)cc2)cc1,-19.2,,"29.1 µM [falling, partial curve, poor fit]"
O=C1CN(C(=O)COc2ccccc2)c2ccccc2N1,8.01,,
COc1ccc(C2c3[nH]c4ccccc4c3C[C@H]3C(=O)N(c4ccccc4C(=O)NCCN4CCOCC4)C(=O)N23)cc1 (stereo partly specified),2.24,,"1.84 µM [rising, partial curve]"
COc1cccc(N(CC(=O)NCc2ccco2)C(=O)CCC(=O)Nc2nccs2)c1,14.8,,"0.82 µM [rising, partial curve]"
CCc1ccc2nc(NC(=O)C3CCN(c4ncnc5sc(C)c(C)c45)CC3)sc2c1,-10.7,,"0.00461 µM [falling, full curve, poor fit]"
CC(C)N1C(=O)C(Cc2nc3ccccc3c(=O)n2-c2ccccc2)c2ccccc21 (stereo unspecified),1.84,"7.31 µM [rising, single point]","6.51 µM [rising, single point]"
COc1ccc(NC(=O)C2COc3ccccc3O2)cc1S(=O)(=O)N1CCOCC1 (stereo unspecified),23.1,"0.326 µM [falling, single point]","29.1 µM [rising, single point]"
CC(C)N(CCC(=O)c1ccc2ccccc2c1)Cc1ccccc1,-67.3,"13 µM [falling, partial curve]","23.1 µM [falling, single point]"
CCCC1(c2ccccc2)NC(=O)N(CCN2C(=O)c3ccccc3C2=O)C1=O (stereo unspecified),-9.04,,
COc1cc(/C=C(/NC(=O)c2ccc(Cl)cc2Cl)C(=O)O)cc(OC)c1OC,4.28,,"0.731 µM [falling, single point]"
COc1ccc(Cn2c(=O)oc3ccc(C)cc32)cc1OC,,,"0.58 µM [rising, single point]"
CSc1ccccc1C(=O)N1CCC2(CC1)CC(=O)c1ccccc1O2,18.4,,"0.92 µM [falling, single point]"
CCNC(=S)N1CCc2cc(OC)c(OC)cc2C1COc1ccccc1OC (stereo unspecified),,,"14.6 µM [falling, partial curve]"
Cn1nc(C(=O)Nc2ccc(Cl)cc2)cc1C(=O)Nc1ccc(Cl)cc1,14.9,,"29.1 µM [rising, single point]"
CC1(C)CC(OC(=O)c2ccco2)CC(C)(C)N1O,-23.4,,"0.259 µM [falling, full curve, poor fit]"
CCOc1ccccc1NC(=O)CCCc1ccc(OC)c(C)c1,-2.2,,"3.26 µM [rising, partial curve, poor fit]"
COc1ccc([C@H]2CC(=O)C=C(c3ccccc3C(F)(F)F)C2)cc1,-20.3,,"2.91 µM [rising, single point]"
O=C(COC(=O)c1n[nH]c2ccccc12)NCc1ccccc1,19.9,,"29.1 µM [rising, single point]"

Compound,cell number change [%],AC50 [1],AC50 [2]
O=C(c1ccc(F)cc1F)N1CCN(S(=O)(=O)c2ccc3c(c2)OCCO3)CC1,-6.48,,
C=CCn1c(CCNC(=O)c2ccccc2F)nnc1SCC(=O)Nc1nc(C)cs1,-18.5,,"2.91 µM [falling, partial curve]"
COc1ccc2c(c1OC)C(=O)N1N=C(c3ccccc3)CC21 (stereo unspecified),59.3,"1.46 µM [rising, full curve]","1.16 µM [rising, full curve]"
N#Cc1ccc(C(=O)N2CCN(C(=O)C3CCCO3)CC2)cc1 (stereo unspecified),19.7,,"4.61 µM [rising, full curve, poor fit]"
COc1cccc(OCC(O)CN2CCN(c3ccc(Cl)cc3)CC2)c1 (stereo unspecified),-3.01,,"0.00517 µM [rising, full curve, poor fit]"
O=C(CSCc1c(F)cccc1Cl)NCCc1ccccc1,1.3,,"29.1 µM [rising, single point]"
Cc1nn(Cc2ccc(C(=O)Nc3nccs3)cc2)c(C)c1Cl,94.3,"0.58 µM [rising, full curve]","4.61 µM [rising, single point]"
COc1ccccc1CNC(=O)c1ccccc1N(C)S(C)(=O)=O,-41.9,"29.1 µM [falling, single point]","3.66 µM [falling, full curve, poor fit]"
O=C(NC1CC2CCCC(C1)N2C(=O)Nc1ccccc1Cl)C1CC1 (stereo unspecified),21,,"0.103 µM [falling, full curve, poor fit]"
Cc1ccc(-c2nn(-c3ccccc3)cc2C2CC(c3cccs3)=NN2C(=O)CCC(=O)O)cc1 (stereo unspecified),-22.6,,
Cc1ccc(S(=O)(=O)N2CCC(C(=O)OCC(=O)N(C)C3CCCCC3)CC2)cc1C,-36.4,"32.6 µM [falling, single point]",
FC(F)(F)c1cccc(CNc2ncccc2-c2nc3cc(Cl)ccc3o2)c1,20.6,,
CC(C)(C)c1cc(C(=O)NNS(=O)(=O)c2ccccc2)n[nH]1,14.7,,"0.184 µM [rising, full curve, poor fit]"
CC(C)(C)OC(=O)N1CCC(CNC(=O)Nc2ccccc2)CC1,-23.8,,"18.4 µM [falling, single point]"
CS(=O)(=O)Cc1ccc(C(=O)Nc2cccc(-c3nc4ccccc4[nH]3)c2)cc1,31.9,"9.2 µM [rising, partial curve, poor fit]",
COCCn1c(=N)c(C(=O)NCCc2ccc(OC)cc2)cc2c(=O)n3cccc(C)c3nc21,11.4,,"0.92 µM [rising, full curve]"
CC(NC(=O)c1ccc(F)cc1)c1nc2ccccc2n1Cc1ccccc1F (stereo unspecified),20.8,,"6.51 µM [falling, single point]"
Cc1ccc(Nc2nnc(SCc3nc4ccccc4c(=O)[nH]3)s2)cc1,5.85,,"0.411 µM [rising, partial curve, poor fit]"
COc1ccc(CCNC(=O)CCn2c(=O)c3cccn3c3cccnc32)cc1OC,-15.6,"0.0082 µM [falling, full curve]",
Cc1ccc2[nH]cc(CCNC(=O)c3ccco3)c2c1,-2.52,,"6.51 µM [falling, single point]"

Compound,cell number change [%],AC50 [1],AC50 [2]
COc1ccc(Cl)cc1NC(=O)CN1CCN(S(=O)(=O)N2CCCCC2)CC1,40.4,"13 µM [rising, partial curve, poor fit]","1.84 µM [falling, partial curve]"
CCOC(=O)C1CCN(C(c2cccs2)c2sc3nc(C)nn3c2O)CC1 (stereo unspecified),75.7,"29.1 µM [rising, single point]",
COc1ccc(C2(CNC(=O)CCC(=O)O)CCCC2)cc1OC,-93.7,"25.9 µM [falling, partial curve]","6.51 µM [falling, single point]"
NC(=S)N/N=C/c1ccc(-c2ccc([N+](=O)[O-])cc2)o1,66.4,"29.1 µM [rising, single point]",
CC(C)c1nc2c(s1)CCc1onc(-c3ccc(Cl)cc3)c1-2,-6.01,,"0.58 µM [falling, full curve]"
CCCCCC(=O)Nc1ccc(N2CCOCC2)c(S(=O)(=O)Nc2ccc(OC)cc2)c1,39.9,"2.06 µM [rising, full curve, poor fit]","4.61 µM [rising, partial curve]"
O=C(CSc1nc(O)c(Cc2ccccc2)c(=O)n1-c1ccccc1)N1CCOCC1,51.7,"0.58 µM [rising, partial curve, poor fit]",
COc1ccccc1N1CCN(Cc2cc3c(cc2Br)OCCO3)CC1,,,"0.58 µM [rising, single point]"
Cc1csc(SCC(=O)Nc2ccc(S(=O)(=O)N3CCCC3)cc2)n1,-36.1,"23.1 µM [falling, partial curve, poor fit]","20.6 µM [falling, partial curve, poor fit]"
O=C(NCC(=O)N1CCN(Cc2ccccc2)CC1)c1ccc(Cl)cc1,11.4,,
Cc1ccccc1N1CCN(c2ncnc3c2cnn3Cc2ccc(Cl)cc2)CC1,-43.6,"0.92 µM [rising, partial curve]",
COc1ccc(CCNC2=C(Cl)C(=O)N(Cc3ccccc3)C2=O)cc1OC,-37.3,"0.651 µM [falling, full curve]",
CCOCCCNC(=O)C(NC(=O)CC1NC(=O)NC1=O)c1ccc(Cl)cc1 (stereo unspecified),-18.9,,"5.17 µM [falling, full curve, poor fit]"
C=CCNC(=S)N/N=C(\C)c1ccccn1,2.98,,"0.731 µM [falling, full curve]"
COC(=O)c1c(C(=O)OC)c(-c2ccccc2)n2c1CS(=O)C2 (stereo unspecified),9.8,,
COc1cccc(NC(=O)CN(C)C(=O)c2cc(-c3ccc(C)o3)nc3ccccc23)c1,13.8,,"6.51 µM [rising, single point]"
CCOc1ccc(S(=O)(=O)Nc2ccccc2C(=O)NCc2ccco2)cc1,-41.5,"16.4 µM [falling, single point]","0.58 µM [rising, full curve]"
COc1ccc(CNC(=O)C2CC(c3cccc([N+](=O)[O-])c3)=NO2)cc1 (stereo unspecified),,,"4.11 µM [rising, full curve]"

# Quoted from the listing:
# Under AC50 [2], `C=CCNC(=S)N/N=C(\C)c1ccccn1` has the entry 0.731 µM [falling, full curve]
# Under AC50 [2], `COc1ccccc1N1CCN(Cc2cc3c(cc2Br)OCCO3)CC1` has the entry 0.58 µM [rising, single point]
# Under AC50 [1], `COc1ccc(CCNC2=C(Cl)C(=O)N(Cc3ccccc3)C2=O)cc1OC` has the entry 0.651 µM [falling, full curve]
# Under AC50 [2], `CC(C)c1nc2c(s1)CCc1onc(-c3ccc(Cl)cc3)c1-2` has the entry 0.58 µM [falling, full curve]
